Assay [1] has as its target KDR on transiently KDR-transfected 293H cells (human) (UniProt P35968). The experiment in a line: 125I-VEGF competition at 300, 30, 3 and 0.3 nM.
Assay [2] has the same target. The experiment in a line: 125I-VEGF competition at 10, 0.3 and 0.03 µM.
Assay [3] addresses human KDR-Fc fusion (R&D Systems #357-KD-050) (human) (UniProt P35968). In words: phage binding screen on KDR-Fc; class legend in paragraph 246.

By UniProt entry, the sequences of proteins in these tests, tags left out. Where a name states a change or a piece, a line headed by the entry shows the natural chain unless it says otherwise. Residues count along the entry.
UniProt P35968: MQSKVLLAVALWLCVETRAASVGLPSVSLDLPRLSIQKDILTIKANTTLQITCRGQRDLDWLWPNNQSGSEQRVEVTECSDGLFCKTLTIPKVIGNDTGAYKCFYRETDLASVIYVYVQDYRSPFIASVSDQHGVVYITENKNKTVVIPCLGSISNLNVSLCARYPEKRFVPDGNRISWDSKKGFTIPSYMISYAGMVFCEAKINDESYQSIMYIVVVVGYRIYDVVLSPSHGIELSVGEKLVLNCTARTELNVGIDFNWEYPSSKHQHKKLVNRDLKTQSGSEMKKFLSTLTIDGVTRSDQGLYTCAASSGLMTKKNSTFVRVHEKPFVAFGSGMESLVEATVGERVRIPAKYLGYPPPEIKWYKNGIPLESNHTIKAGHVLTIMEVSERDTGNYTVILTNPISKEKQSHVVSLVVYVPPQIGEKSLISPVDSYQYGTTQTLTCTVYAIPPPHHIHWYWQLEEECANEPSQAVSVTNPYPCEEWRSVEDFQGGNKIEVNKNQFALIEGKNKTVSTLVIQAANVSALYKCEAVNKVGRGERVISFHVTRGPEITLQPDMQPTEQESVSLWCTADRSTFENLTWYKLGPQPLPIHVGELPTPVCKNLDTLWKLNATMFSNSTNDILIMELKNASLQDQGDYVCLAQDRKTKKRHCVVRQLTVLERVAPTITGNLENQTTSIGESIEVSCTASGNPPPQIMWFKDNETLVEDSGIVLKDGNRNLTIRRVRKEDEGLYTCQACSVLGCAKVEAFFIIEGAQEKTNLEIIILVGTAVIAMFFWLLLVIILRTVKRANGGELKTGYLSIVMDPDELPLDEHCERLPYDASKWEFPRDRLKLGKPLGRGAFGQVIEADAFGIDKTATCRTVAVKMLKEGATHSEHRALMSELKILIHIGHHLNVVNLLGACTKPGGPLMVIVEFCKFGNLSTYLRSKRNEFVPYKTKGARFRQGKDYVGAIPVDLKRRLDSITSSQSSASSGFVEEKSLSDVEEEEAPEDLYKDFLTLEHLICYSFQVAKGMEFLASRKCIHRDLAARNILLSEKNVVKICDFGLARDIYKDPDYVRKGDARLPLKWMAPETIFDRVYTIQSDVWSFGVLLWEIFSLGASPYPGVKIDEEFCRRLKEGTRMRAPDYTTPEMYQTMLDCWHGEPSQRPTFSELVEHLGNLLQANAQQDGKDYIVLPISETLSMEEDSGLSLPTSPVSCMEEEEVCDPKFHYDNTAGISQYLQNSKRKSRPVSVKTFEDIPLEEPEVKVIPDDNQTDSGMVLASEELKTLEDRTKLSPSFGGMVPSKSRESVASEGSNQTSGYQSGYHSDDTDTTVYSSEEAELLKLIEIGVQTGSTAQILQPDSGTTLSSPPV
KDR on transiently KDR-transfected 293H cells: residues 20-1356 of P35968
human KDR-Fc fusion (R&D Systems #357-KD-050): residues 20-764 of P35968

Experimental findings from patent publication EP2014310A2 (Dyax Corporation, dated 2009) are described below.

No constants are given. Whether binding was seen depends on the method and setting. Some results given as binding are weak or reduced against the parent protein; the word gives no strength.

Regarding ERVTTCWPGEYGGVECYSVAY [SEQ ID NO:504 (monomeric peptide)], in assay [1], the binding result was “binds”. Take AQDWYYDEILSMADQLRHAFLSGG [P13-D (…; SEQ ID NO:376)]: in assay [2], the binding entry is reported as “binds”. As to WYWCQYHGVCPQS [phage isolate …], in assay [3], the binding result is recorded as “binds”.
